Reference: patent US20160017037A1
Results are given in words; binding and its absence hold for the method and conditions named. Some results given as binding are weak or reduced against the parent protein; the word gives no strength.

Amino acid sequences for entries named in this document (tags omitted). Residues count along the entry.
UniProt P18627, residues 23-434: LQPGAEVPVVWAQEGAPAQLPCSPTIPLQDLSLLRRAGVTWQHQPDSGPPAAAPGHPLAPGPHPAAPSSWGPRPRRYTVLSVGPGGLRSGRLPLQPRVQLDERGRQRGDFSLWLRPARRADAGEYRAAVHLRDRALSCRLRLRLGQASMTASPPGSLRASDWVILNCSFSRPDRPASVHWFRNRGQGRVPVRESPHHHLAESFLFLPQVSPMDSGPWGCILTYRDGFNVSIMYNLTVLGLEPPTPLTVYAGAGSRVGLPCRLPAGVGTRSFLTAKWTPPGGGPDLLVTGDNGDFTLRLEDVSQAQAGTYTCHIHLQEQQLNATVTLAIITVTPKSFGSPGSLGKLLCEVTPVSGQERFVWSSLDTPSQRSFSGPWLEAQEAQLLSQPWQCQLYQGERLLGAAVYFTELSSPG

Key:
[1] = target: Fc-tagged recombinant soluble LAG-3 (IMP321) (human) (UniProt P18627); test: SPR Biacore 3000, purified antibody captured on anti-human kappa, IMP321 analyte at 64 nM, visual inspection of sensorgrams
[2] = target: Fc-tagged recombinant soluble LAG-3 (IMP321) (human) (UniProt P18627); test: SPR Biacore 3000, tissue culture supernatants, off-rates compared with IMP731 visually
[3] = target: Fc-tagged recombinant soluble LAG-3 (IMP321) (human) (UniProt P18627); test: SPR Biacore 3000, off-rate comparison with IMP731, IMP321 analyte at 64 nM

Measured: binding

B1: J0L7 (antibody, human IgG1, kappa, V domains shown)
VH: QVQLVQSGAEVKKPGSSVKVSCKASGGTFSAYGVNWVRQAPGQGLEWMGMIWDDGSTDYNSALKSRVTITADKSTSTAYMELSSLRSEDTAVYYCAREGDVAFDYWGQGTLVTVSS
VL: DIQMTQSPSSLSASVGDRVTITCKSSQSLLNPSNQKNYLAWYQQKPGKAPKLLVYFASTRDSGVPSRFSGSGSGTDFTLTISSLQPEDFATYYCLQHFGTPPTFGQGTKLEIKR
binds: [1] | [2] | [3]

B2: H0L7 (antibody, human IgG1, kappa, V domains shown)
VH: QVQLQESGPGLVKPSETLSLTCTVSGGSISAYGVNWIRQPPGKGLEWIGMIWDDGSTDYNSALKSRVTISVDTSKNQFSLKLSSVTAADTAVYYCAREGDVAFDYWGQGTLVTVSS
VL: DIQMTQSPSSLSASVGDRVTITCKSSQSLLNPSNQKNYLAWYQQKPGKAPKLLVYFASTRDSGVPSRFSGSGSGTDFTLTISSLQPEDFATYYCLQHFGTPPTFGQGTKLEIKR
binds: [1] | [2] | [3]

B3: H1L1 (antibody, human IgG1, kappa, V domains shown)
VH: QVQLQESGPGLVKPSETLSLTCTVSGFSLTAYGVNWIRQPPGKGLEWIGMIWDDGSTDYNSALKSRVTISVDTSKNQFSLKLSSVTAADTAVYYCAREGDVAFDYWGQGTLVTVSS
VL: DIQMTQSPSSLSASVGDRVTITCKSSQSLLNGSNQKNYLAWYQQKPGKAPKLLVYFASTRDSGVPSRFSGSGSGTDFTLTISSLQPEDFATYYCLQHFGTPPTFGQGTKLEIKR
binds: [1] | [2] | [3]

B4: H5L1 (antibody, human IgG1, kappa, V domains shown)
VH: QVQLQESGPGLVKPSETLSLTCTVSGFSLTAYGVNWIRQPPGKGLEWIGMIWDDGSTDYDSALKSRVTISVDTSKNQFSLKLSSVTAADTAVYYCAREGDVAFDYWGQGTLVTVSS
VL: DIQMTQSPSSLSASVGDRVTITCKSSQSLLNGSNQKNYLAWYQQKPGKAPKLLVYFASTRDSGVPSRFSGSGSGTDFTLTISSLQPEDFATYYCLQHFGTPPTFGQGTKLEIKR
binds: [1] | [2] | [3]

B5: J7L1 (antibody, human IgG1, kappa, V domains shown)
VH: QVQLVQSGAEVKKPGSSVKVSCKASGFSLTAYGVNWVRQAPGQGLEWMGMIWDDGSTDYNSALKSRVTITADKSTSTAYMELSSLRSEDTAVYYCAREGDVAFDYWGQGTLVTVSS
VL: DIQMTQSPSSLSASVGDRVTITCKSSQSLLNGSNQKNYLAWYQQKPGKAPKLLVYFASTRDSGVPSRFSGSGSGTDFTLTISSLQPEDFATYYCLQHFGTPPTFGQGTKLEIKR
binds: [1] | [2] | [3]

B6: J11L1 (antibody, human IgG1, kappa, V domains shown)
VH: QVQLVQSGAEVKKPGSSVKVSCKASGFSLTAYGVNWVRQAPGQGLEWMGMIWDDGSTDYDSALKSRVTITADKSTSTAYMELSSLRSEDTAVYYCAREGDVAFDYWGQGTLVTVSS
VL: DIQMTQSPSSLSASVGDRVTITCKSSQSLLNGSNQKNYLAWYQQKPGKAPKLLVYFASTRDSGVPSRFSGSGSGTDFTLTISSLQPEDFATYYCLQHFGTPPTFGQGTKLEIKR
binds: [1] | [2] | [3]

B7: J13L1 (antibody, human IgG1, kappa, V domains shown)
VH: QVQLVQSGAEVKKPGSSVKVSCKASGGTFSAYGVNWVRQAPGQGLEWMGMIWDDGSTDYDSALKSRVTITADKSTSTAYMELSSLRSEDTAVYYCAREGDVAFDYWGQGTLVTVSS
VL: DIQMTQSPSSLSASVGDRVTITCKSSQSLLNGSNQKNYLAWYQQKPGKAPKLLVYFASTRDSGVPSRFSGSGSGTDFTLTISSLQPEDFATYYCLQHFGTPPTFGQGTKLEIKR
binds: [1] | [2] | [3]

B8: H7L1 (antibody, human IgG1, kappa, V domains shown)
VH: QVQLQESGPGLVKPSETLSLTCTVSGGSISAYGVNWIRQPPGKGLEWIGMIWDDGSTDYDSALKSRVTISVDTSKNQFSLKLSSVTAADTAVYYCAREGDVAFDYWGQGTLVTVSS
VL: DIQMTQSPSSLSASVGDRVTITCKSSQSLLNGSNQKNYLAWYQQKPGKAPKLLVYFASTRDSGVPSRFSGSGSGTDFTLTISSLQPEDFATYYCLQHFGTPPTFGQGTKLEIKR
binds: [1] | [2] | [3]

B9: J0L1 (antibody, human IgG1, kappa, V domains shown)
VH: QVQLVQSGAEVKKPGSSVKVSCKASGGTFSAYGVNWVRQAPGQGLEWMGMIWDDGSTDYNSALKSRVTITADKSTSTAYMELSSLRSEDTAVYYCAREGDVAFDYWGQGTLVTVSS
VL: DIQMTQSPSSLSASVGDRVTITCKSSQSLLNGSNQKNYLAWYQQKPGKAPKLLVYFASTRDSGVPSRFSGSGSGTDFTLTISSLQPEDFATYYCLQHFGTPPTFGQGTKLEIKR
binds: [1] | [2] | [3]

B10: H0L1 (antibody, human IgG1, kappa, V domains shown)
VH: QVQLQESGPGLVKPSETLSLTCTVSGGSISAYGVNWIRQPPGKGLEWIGMIWDDGSTDYNSALKSRVTISVDTSKNQFSLKLSSVTAADTAVYYCAREGDVAFDYWGQGTLVTVSS
VL: DIQMTQSPSSLSASVGDRVTITCKSSQSLLNGSNQKNYLAWYQQKPGKAPKLLVYFASTRDSGVPSRFSGSGSGTDFTLTISSLQPEDFATYYCLQHFGTPPTFGQGTKLEIKR
binds: [1] | [2] | [3]

B11: H1L7 (antibody, human IgG1, kappa, V domains shown)
VH: QVQLQESGPGLVKPSETLSLTCTVSGFSLTAYGVNWIRQPPGKGLEWIGMIWDDGSTDYNSALKSRVTISVDTSKNQFSLKLSSVTAADTAVYYCAREGDVAFDYWGQGTLVTVSS
VL: DIQMTQSPSSLSASVGDRVTITCKSSQSLLNPSNQKNYLAWYQQKPGKAPKLLVYFASTRDSGVPSRFSGSGSGTDFTLTISSLQPEDFATYYCLQHFGTPPTFGQGTKLEIKR
binds: [1] | [2] | [3]

B12: J7L7 (antibody, human IgG1, kappa, V domains shown)
VH: QVQLVQSGAEVKKPGSSVKVSCKASGFSLTAYGVNWVRQAPGQGLEWMGMIWDDGSTDYNSALKSRVTITADKSTSTAYMELSSLRSEDTAVYYCAREGDVAFDYWGQGTLVTVSS
VL: DIQMTQSPSSLSASVGDRVTITCKSSQSLLNPSNQKNYLAWYQQKPGKAPKLLVYFASTRDSGVPSRFSGSGSGTDFTLTISSLQPEDFATYYCLQHFGTPPTFGQGTKLEIKR
binds: [1] | [2] | [3]

B13: H4L7 (antibody, human IgG1, kappa, V domains shown)
VH: QVQLQESGPGLVKPSETLSLTCTVSGFSLTAYGVNWIRQPPGKGLEWLGMIWDDGSTDYNSALKSRLTISKDNSKNQVSLKLSSVTAADTAVYYCAREGDVAFDYWGQGTLVTVSS
VL: DIQMTQSPSSLSASVGDRVTITCKSSQSLLNPSNQKNYLAWYQQKPGKAPKLLVYFASTRDSGVPSRFSGSGSGTDFTLTISSLQPEDFATYYCLQHFGTPPTFGQGTKLEIKR
binds: [1] | [2] | [3]

B14: J11L7 (antibody, human IgG1, kappa, V domains shown)
VH: QVQLVQSGAEVKKPGSSVKVSCKASGFSLTAYGVNWVRQAPGQGLEWMGMIWDDGSTDYDSALKSRVTITADKSTSTAYMELSSLRSEDTAVYYCAREGDVAFDYWGQGTLVTVSS
VL: DIQMTQSPSSLSASVGDRVTITCKSSQSLLNPSNQKNYLAWYQQKPGKAPKLLVYFASTRDSGVPSRFSGSGSGTDFTLTISSLQPEDFATYYCLQHFGTPPTFGQGTKLEIKR
binds: [1] | [2] | [3]

B15: H2L7 (antibody, human IgG1, kappa, V domains shown)
VH: QVQLQESGPGLVKPSETLSLTCTVSGFSLTAYGVNWIRQPPGKGLEWIGMIWDDGSTDYNSALKSRVTISKDNSKNQVSLKLSSVTAADTAVYYCAREGDVAFDYWGQGTLVTVSS
VL: DIQMTQSPSSLSASVGDRVTITCKSSQSLLNPSNQKNYLAWYQQKPGKAPKLLVYFASTRDSGVPSRFSGSGSGTDFTLTISSLQPEDFATYYCLQHFGTPPTFGQGTKLEIKR
binds: [1] | [2] | [3]

B16: J13L7 (antibody, human IgG1, kappa, V domains shown)
VH: QVQLVQSGAEVKKPGSSVKVSCKASGGTFSAYGVNWVRQAPGQGLEWMGMIWDDGSTDYDSALKSRVTITADKSTSTAYMELSSLRSEDTAVYYCAREGDVAFDYWGQGTLVTVSS
VL: DIQMTQSPSSLSASVGDRVTITCKSSQSLLNPSNQKNYLAWYQQKPGKAPKLLVYFASTRDSGVPSRFSGSGSGTDFTLTISSLQPEDFATYYCLQHFGTPPTFGQGTKLEIKR
binds: [1] | [2] | [3]

B17: H7L7 (antibody, human IgG1, kappa, V domains shown)
VH: QVQLQESGPGLVKPSETLSLTCTVSGGSISAYGVNWIRQPPGKGLEWIGMIWDDGSTDYDSALKSRVTISVDTSKNQFSLKLSSVTAADTAVYYCAREGDVAFDYWGQGTLVTVSS
VL: DIQMTQSPSSLSASVGDRVTITCKSSQSLLNPSNQKNYLAWYQQKPGKAPKLLVYFASTRDSGVPSRFSGSGSGTDFTLTISSLQPEDFATYYCLQHFGTPPTFGQGTKLEIKR
binds: [1] | [2] | [3]
